Drawing on PMC12045350, this text covers binding for two substances.

Sequences of proteins named here, by UniProt entry; tags and fusion partners are left off. Residues count along the entry.
UniProt P49792, residues 2503-2893: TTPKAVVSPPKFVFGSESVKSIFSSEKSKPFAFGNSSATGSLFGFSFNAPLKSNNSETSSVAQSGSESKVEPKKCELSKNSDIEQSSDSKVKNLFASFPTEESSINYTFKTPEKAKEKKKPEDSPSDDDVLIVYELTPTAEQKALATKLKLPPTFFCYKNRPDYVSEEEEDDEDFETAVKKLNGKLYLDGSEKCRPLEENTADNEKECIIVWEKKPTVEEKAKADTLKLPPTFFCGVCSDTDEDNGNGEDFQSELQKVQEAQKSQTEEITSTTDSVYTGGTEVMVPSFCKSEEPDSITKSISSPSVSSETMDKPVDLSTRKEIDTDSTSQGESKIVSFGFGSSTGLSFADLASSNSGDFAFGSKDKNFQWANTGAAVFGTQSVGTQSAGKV

Results are given in words; binding and its absence hold for the method and conditions named. Some results given as binding are weak or reduced against the parent protein; the word gives no strength.

The assay concerns the target GST-Nup358 (res. 2503–2893) (UniProt P49792). Description: pull-down; GST-Nups on glutathione beads; 3 μM importin β, 1 h, 4°C; 20 mM HEPES pH 7.0, 150 mM KOAc, 2 mM Mg(OAc)2, 1 mM dithiothreitol, 0.1% Tween; then 10 μM MBP-αIBB, or 10 μM Ran-GTP, or 10 μM Ran-GTP plus 30 μM RanBP1 for 1 h at 4°C; SDS-PAGE, densitometry; both purified.

For importin β (from UniProt Q14974 1-876), the binding result is “binds”.
In the case of “importin β:αIBB (importin β with MBP-αIBB, pull-down) (from UniProt Q14974 1-876; P52292 2-60) (complex)” it was “binds”.
